# Results published in PubChem BioAssay AID493014 (National Center for Advancing Translational Sciences (NCATS), 2011).
# This is one part of the list. These are further read-outs of the screen, such as a control signal, another cell line or another target. No call is given for them. Most of these compounds were active or inconclusive in the main read-out, so they are no random draw. The note in brackets gives the kind of curve behind each potency; many fits are weak.
# Test: qHTS Assay to Find Inhibitors of Chronic Active B-Cell Receptor Signaling
# Settings: ABC-DLBCL IkBa-CBG/CBR reporter, luminescence ratio (green luciferase fused to IkBa over red control in TMD8 lymphoma cells), 4 h
# Outline: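 Compounds up to 46 uM were incubated four hours with TMD8 cells whose green CBG68 luciferase is fused to IkappaBalpha; red CBR luminescence normalised the signal, and concentration-effect curves were fitted to fusion, red and ratio data.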
# [1] = measured here: CBR red luminescence, cell number
# [2] = measured here: IkBa-CBG green luminescence
Structure (SMILES),AC50 [1],AC50 [2]
C=CCN=C1S/C(=C\c2ccc(Cl)cc2)C(=O)N1CC=C,"7.94 µM [rising, partial curve, poor fit]",–
S=c1nc[nH]c2c1cnn2-c1ccccc1,"10 µM [falling, partial curve, poor fit]",–
CC(=O)N1c2ccc(S(=O)(=O)NCC3CCC(C(=O)N4CCCC(C)C4)CC3)cc2CC1C (stereo not drawn),"12.6 µM [rising, partial curve]",–
Cn1c(CCNC(=O)c2ccccc2)nc2cc(NC(=O)C3CCCCC3)ccc21,"32.6 µM [rising, partial curve, poor fit]",–
COc1ccc(C(=O)Nc2ccccc2C(N)=O)cc1,"16.4 µM [falling, partial curve]",–
Cc1oc(-c2ccccc2F)nc1CS(=O)(=O)CC(=O)N1CCOCC1,"32.6 µM [rising, single point]",–
O=C(Nc1ccccc1N1CCN(C(=O)c2ccccc2)CC1)c1ccc2c(c1)OCO2,"35.5 µM [falling, single point]",–
COc1ccc(OC)c(S(=O)(=O)Nc2ccc(-c3ccc4nnc(C)n4n3)cc2)c1,"8.2 µM [rising, partial curve]","23.1 µM [falling, partial curve, poor fit]"
Cc1ccc2c(C)nc(Nc3nc(CSc4nnc(C)s4)cc(=O)[nH]3)nc2c1,"2.51 µM [falling, full curve]",–
O=[N+]([O-])c1ccc(N=NNc2ccccc2)cc1,"0.251 µM [rising, full curve, poor fit]",–
CCCN1C(=O)C(O)(CC(=O)c2ccc(CC)cc2)c2cc(Br)ccc21 (stereo not drawn),"35.5 µM [falling, single point]",–
CC1CC1c1ccc(/C=C(\C#N)C(=O)Nc2cccc(Cl)c2Cl)o1 (stereo not drawn),"1.84 µM [falling, partial curve, poor fit]",–
CCn1nnc(NC(=S)NC(=O)c2ccc(-c3cccc(Cl)c3)o2)n1,"3.55 µM [rising, single point]","3.98 µM [falling, single point]"
O=C(NC(=O)N1CCN(c2cccc(Cl)c2)CC1)c1ccc(Cl)cc1,"12.6 µM [falling, partial curve, poor fit]",–
CS(=O)(=O)N(CC(=O)Nc1ccccc1Sc1ccccc1)c1cccc(Br)c1,"4.11 µM [rising, single point]",–
Cc1ccc(C2=N/C(=C\c3ccc(F)cc3)C(=O)N2)cc1,"0.517 µM [rising, full curve, poor fit]",–
O=C1NC2(CCCCC2)N=C1c1ccc(Br)cc1,"5.17 µM [rising, single point]",–
CC1=NN(c2ccc(Cl)cc2)C(=O)C1C(c1cccc(O)c1)c1c(C)[nH]n(-c2ccc(Cl)cc2)c1=O (stereo not drawn),"29.1 µM [falling, single point]","25.9 µM [rising, partial curve, poor fit]"
Cc1ccc(S(=O)(=O)/C(C#N)=C/c2c(N3CCC(C(N)=O)CC3)nc3c(C)cccn3c2=O)cc1,"7.31 µM [falling, partial curve, poor fit]",–
Cc1ccsc1/C=N/NC(=O)CC(=O)NCC(C)C,"12.6 µM [rising, partial curve, poor fit]",–

# 3 entries from above, with tabs:
Structure (SMILES)	AC50 [1]	AC50 [2]
CC(=O)N1c2ccc(S(=O)(=O)NCC3CCC(C(=O)N4CCCC(C)C4)CC3)cc2CC1C (stereo not drawn)	12.6 µM [rising, partial curve]	–
COc1ccc(OC)c(S(=O)(=O)Nc2ccc(-c3ccc4nnc(C)n4n3)cc2)c1	8.2 µM [rising, partial curve]	23.1 µM [falling, partial curve, poor fit]
O=C(NC(=O)N1CCN(c2cccc(Cl)c2)CC1)c1ccc(Cl)cc1	12.6 µM [falling, partial curve, poor fit]	–

# Additional records.

Structure (SMILES),AC50 [1],AC50 [2]
CC(C)Oc1ccc(C(=O)Nc2nc3ccccc3[nH]2)cc1,"3.55 µM [falling, full curve]",–
CSc1ccc(CCNC(=O)c2cc(-c3ccccc3)c(N3CCOCC3)s2)cc1,"5.62 µM [rising, single point]",–
O=C1CN(c2nc(-c3cccs3)nc3sc4c(c23)CCCC4)CCN1,"35.5 µM [falling, single point]",–
Cc1cccc(-n2cc(-c3ccccc3)c3c(NC(C)C)ncnc32)c1,"10 µM [rising, partial curve]",–
Cc1ccc(C(=O)c2c(C)oc3c2C(=O)C(=O)c2ccccc2-3)cc1,"35.5 µM [falling, single point]",–
COc1cc2c(cc1OC)CN(S(=O)(=O)c1ccccc1F)CC2,"35.5 µM [falling, single point]",–
CCc1cccc(CC)c1NC(=O)COC(=O)/C(C#N)=C/c1ccc(OC)cc1,"25.9 µM [falling, partial curve, poor fit]",–
O=C(O)CCCN1C(=O)/C(=C\c2ccccc2OCc2ccccc2)SC1=S,"1.12 µM [falling, partial curve]","2.82 µM [falling, partial curve, poor fit]"
O=S(=O)(Nc1nc2ccccc2nc1NCc1ccco1)c1ccc(Cl)cc1,"13 µM [rising, partial curve, poor fit]",–
CCCN(CCC)S(=O)(=O)c1ccc(Cl)c([N+](=O)[O-])c1,"11.2 µM [falling, partial curve]","15.8 µM [rising, partial curve, poor fit]"
Cc1ccccc1C(=O)Nc1cccc(NC(=S)NC(=O)c2cccs2)c1,"0.282 µM [falling, full curve, poor fit]","12.6 µM [rising, partial curve, poor fit]"
COC(=O)c1c(NC(=O)C(Cl)Cl)sc2c1C(C(=O)OC)CC2 (stereo not drawn),"3.98 µM [rising, partial curve, poor fit]",–
CC(C)(C)c1cc(OS(C)(=O)=O)ccc1O,"3.16 µM [rising, full curve, poor fit]",–
Nc1cc(Cl)ccc1C(=O)OCC(=O)NC1CCCCCCC1,"32.6 µM [rising, single point]","16.4 µM [falling, partial curve, poor fit]"
COc1ccc(-c2c(C)cc3oc(=O)cc(-c4ccccc4)c3c2C)cc1C=O,"5.8 µM [rising, partial curve, poor fit]",–
O=C(Nc1nnc(SCc2c(Cl)cccc2Cl)s1)C1CCCO1 (stereo not drawn),"12.6 µM [rising, single point]",–
CCOC(=O)C1=C(c2ccccc2)N=c2s/c(=C\c3cccc(O)c3)c(=O)n2C1c1cccs1 (stereo not drawn),"3.98 µM [rising, partial curve, poor fit]",–
O=C(Nc1cccnc1)c1cc(-c2ccco2)on1,"7.94 µM [falling, partial curve, poor fit]",–
COc1ccc(OCCCC(=O)Nc2cccc(C(C)=O)c2)cc1,"20.6 µM [falling, partial curve]",–
COc1ccc(/C=C2\SC(=O)N(CC(=O)NCCC(C)C)C2=O)cc1OC,"7.08 µM [rising, full curve, poor fit]",–

Structure (SMILES),AC50 [1],AC50 [2]
CCOC(=O)c1[nH]c(C)c(C(=O)OCC(=O)N2CCCCC2C)c1C (stereo not drawn),"0.731 µM [falling, full curve, poor fit]",–
CCOC(=O)c1c(C)oc2c1c1c(c3ccccc32)OCN(CCCC(=O)O)C1,"0.282 µM [rising, full curve, poor fit]",–
N#Cc1ccccc1OCC(=O)NC(=O)NCc1ccccc1,"6.31 µM [falling, partial curve]",–
CCOC(=O)N1CCN(C(=O)c2nn(C)c3c2CSc2ccccc2-3)CC1,"0.355 µM [rising, full curve, poor fit]",–
Cc1noc(C)c1C(=O)OCC(=O)Nc1cccc(S(=O)(=O)N(C)C)c1,"9.2 µM [falling, partial curve]",–
O=C(N/N=C/c1ccc[nH]1)c1c[nH]c2ccccc12,"2.51 µM [falling, partial curve]",–
O=C1C(Nc2ccccc2)=CC(c2ccc(O)cc2)N1c1ccccc1 (stereo not drawn),"22.4 µM [falling, single point]",–
CCC(NC(=S)NC1CCCCC1)c1ccc(C(C)C)cc1 (stereo not drawn),"28.2 µM [falling, single point]",–
O=C(CCC(=O)OCc1ccc(C(=O)Oc2ccc(Cl)cc2)cc1)Nc1ccccc1,"29.1 µM [rising, single point]",–
O=C(Nc1cccc2cccnc12)c1ccc(F)cc1,"8.91 µM [falling, partial curve]",–
CN(C)CCNC(=O)c1ccc2c(c1)NC(=O)c1ccccc1S2,"8.91 µM [falling, partial curve, poor fit]",–
O=C(COc1ccc(S(=O)(=O)NC2CCCCC2)cc1)Nc1ccc2c(c1)OCCO2,"22.4 µM [falling, single point]",–
Cc1onc(CO)c1C(=O)Nc1nccs1,"3.98 µM [falling, partial curve]","11.2 µM [rising, partial curve, poor fit]"
COc1cc(C2C(C#N)=C(N)OC3=C2C(=O)CC(C)(C)C3)cc([N+](=O)[O-])c1O (stereo not drawn),"2.82 µM [falling, partial curve, poor fit]",–
CSc1ccccc1C(=O)Nc1ccc(C)c(C)c1,"29.1 µM [falling, single point]",–
O=C(Cc1ccccc1)N(Cc1cccnc1)c1nc2ccc(F)cc2s1,"11.2 µM [falling, single point]",–
CCN(CC(=O)NC(=O)NCc1ccccc1)Cc1nc2ccccc2c(=O)[nH]1,"14.1 µM [falling, single point]",–
CCC(C)N1C(=O)S/C(=C/c2ccc(N3CCOCC3)cc2C)C1=O (stereo not drawn),"3.26 µM [rising, full curve, poor fit]",–
CCCONC(=O)Nc1ccccc1[N+](=O)[O-],"18.4 µM [rising, partial curve, poor fit]",–
O=[N+]([O-])c1cccc(S(=O)(=O)Nc2ccc(Cc3ccncc3)cc2)c1,"1.26 µM [falling, full curve, poor fit]",–
